According to PMC9564178 (Cells, 2022):
No constants are given. Whether binding was seen depends on the method and setting. For some assays here: Binding seen in cells or lysates may run through a third protein. Some results given as binding are weak or reduced against the parent protein; the word gives no strength. Tags and fused reporters may be left off the sequences shown. Blank lines part the entries; values can stand above or below the molecule they belong to.

Key:
[1] = target: T1, human recombinant TPPP3 (hexaHis fusion) (human) (UniProt Q9BW30); experiment: ELISA; TPPP3 immobilised on the plate; extracts of HeLa cells transfected with pEGFP-TPPP3 or pEGFP-TPPP1 added at different concentrations; detected by GFP antibody; only the target purified
T1 sequence: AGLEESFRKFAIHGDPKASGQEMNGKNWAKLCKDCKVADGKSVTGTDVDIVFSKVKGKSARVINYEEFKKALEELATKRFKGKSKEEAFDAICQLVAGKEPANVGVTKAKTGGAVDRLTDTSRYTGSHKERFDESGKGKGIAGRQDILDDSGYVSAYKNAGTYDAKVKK

[2] = target: TPPP1 fused to the N-terminal half of mVenus (pBiFC-V^N-TPPP1) (human) (UniProt O94811); experiment: split reporter; BiFC with half-mVenus constructs (100-100 ng for each V^N-V^C pair) in HeLa cells, fixed with cold methanol; 100 ng unlabeled TPPP3 plasmid co-transfected as competitor where mentioned
[3] = target: TPPP3 fused to a half of mVenus (pBiFC-V^N-TPPP3 and pBiFC-V^C-TPPP3) (human) (UniProt Q9BW30); experiment: as above

Molecule: EGFP-TPPP1 (from UniProt O94811 1-219)
binding [1]: binds

B2: EGFP-TPPP3 (protein, UniProt Q9BW30 1-176)
chain: MAASTDMAGLEESFRKFAIHGDPKASGQEMNGKNWAKLCKDCKVADGKSVTGTDVDIVFSKVKGKSARVINYEEFKKALEELATKRFKGKSKEEAFDAICQLVAGKEPANVGVTKAKTGGAVDRLTDTSRYTGSHKERFDESGKGKGIAGRQDILDDSGYVSAYKNAGTYDAKVKK
binding [1]: binds

The next lines start with the values.

binding [2]: binds
B1: unlabeled TPPP3 (pcDNA3.1(-)-TPPP3) (protein, UniProt Q9BW30 1-176)
chain: B2 chain

binding [2]: binds | binding [3]: binds
B3: TPPP3 fused to a half of mVenus (pBiFC-V^N-TPPP3 and pBiFC-V^C-TPPP3) (protein, UniProt Q9BW30 1-176)
chain: B2 chain
